# Paper PMC8555793
# Target: V5-Rpo41 (RPO41preseq-3xV5-RPO41) (S. cerevisiae)
# Assay: co-IP; yeast lysates in NP40 buffer (50mM Tris pH7.5, 150mM NaCl, 1% Np40), 0.2% BSA; V5-Rpo41 precipitated with anti-V5 agarose beads, 2 hours at 4C; blotted for HA and V5
row,binding,Binder
1,binds,"Pet127^1-215 (pet127(1–215)-6xHA) (domain or fragment, UniProt P32606 1-215) MGFYNCRFLSRRLSVEPCRIGSAAKSYQQRSIYHFGAALTNAPSGRETPDKLRSDLHSALEMVDEIYDTNSTVEDIGNKEKGGRQKYTEEMDKAINLLKTNIKKEYRHDKYLERTKVGTYPGRRTYPGRRTYPARRTYPASRTYSDSNSYTFRINVQKIRHALVRYNQDGVQKHNQKPPRIGHGLTRVLYQPLSLQKLRDNRSRMYNFDPAVENI"
2,binds,"Pet127-HA (PET127-6xHA) (protein, UniProt P32606 1-800) MGFYNCRFLSRRLSVEPCRIGSAAKSYQQRSIYHFGAALTNAPSGRETPDKLRSDLHSALEMVDEIYDTNSTVEDIGNKEKGGRQKYTEEMDKAINLLKTNIKKEYRHDKYLERTKVGTYPGRRTYPGRRTYPARRTYPASRTYSDSNSYTFRINVQKIRHALVRYNQDGVQKHNQKPPRIGHGLTRVLYQPLSLQKLRDNRSRMYNFDPAVENINPEYLEKKSEKDVNTDSSGEGQSKPIFITPHKDESLLKVAKEHRKKYISSSSSMTSVLSQLHYLLSNFRRLNIIDSSISKNFPQKNCNYSESAYFPSAVILRKKRNGICSIDSDRSLDREIVLSVLGHYLEDFLTEKSLKNSSKSENYHYSSIDEFIVRSQLDAYDPNLPGTGVFDLKTRAVSAIRYDLSHVESNNNQTGYEIDKVYGEFESLEREYFELIRSALLKYSLQARIGKMDGIFVAYHNISKMFGFQYLPLDELDYIIHSSYNSKFDSLLKEKNDITKGIYGEEDYILHYDRDDRKIACLVANREFKMSMNLFSNILKHVEQLLNSSNTKWEKCKIMLKTEVEEKRSKSGRFFNEPVLNIVALPLSPEYEDKSLLVKDTSNEQLTEELLNLRSYNENLLEEHLNSLVGFKVNVKHFYHHHPNTTHLPDFALKKNDILDTESRKYISDMMKRDWYKDIPSTQTPNFFHASDVSTWEVNSTFTDINDKQILRKLYFKYLDVKLNALKNQVITRQEPDMSKKDEIMNRIKSLQARNDHRDNGSNKRYSNFGPTRLQTKLRAYAKKGALRRKLLERSNKFHI"
3,binds,"Pet127-nd (pet127-nd-6xHA) (protein, UniProt P32606 1-800) MGFYNCRFLSRRLSVEPCRIGSAAKSYQQRSIYHFGAALTNAPSGRETPDKLRSDLHSALEMVDEIYDTNSTVEDIGNKEKGGRQKYTEEMDKAINLLKTNIKKEYRHDKYLERTKVGTYPGRRTYPGRRTYPARRTYPASRTYSDSNSYTFRINVQKIRHALVRYNQDGVQKHNQKPPRIGHGLTRVLYQPLSLQKLRDNRSRMYNFDPAVENINPEYLEKKSEKDVNTDSSGEGQSKPIFITPHKDESLLKVAKEHRKKYISSSSSMTSVLSQLHYLLSNFRRLNIIDSSISKNFPQKNCNYSESAYFPSAVILRKKRNGICSIDSDRSLDREIVLSVLGHYLADFLTEKSLKNSSKSENYHYSSIDEFIVRSQLAAYDPNLPGTGVFALATRAVSAIRYDLSHVESNNNQTGYEIDKVYGEFESLEREYFELIRSALLKYSLQARIGKMDGIFVAYHNISKMFGFQYLPLDELDYIIHSSYNSKFDSLLKEKNDITKGIYGEEDYILHYDRDDRKIACLVANREFKMSMNLFSNILKHVEQLLNSSNTKWEKCKIMLKTEVEEKRSKSGRFFNEPVLNIVALPLSPEYEDKSLLVKDTSNEQLTEELLNLRSYNENLLEEHLNSLVGFKVNVKHFYHHHPNTTHLPDFALKKNDILDTESRKYISDMMKRDWYKDIPSTQTPNFFHASDVSTWEVNSTFTDINDKQILRKLYFKYLDVKLNALKNQVITRQEPDMSKKDEIMNRIKSLQARNDHRDNGSNKRYSNFGPTRLQTKLRAYAKKGALRRKLLERSNKFHI"

# Target: GST-Rpo41 (S. cerevisiae)
# Assay: pull-down; bacterial lysates; GST-Rpo41 or GST bound to glutathione beads and washed, then equal amounts of lysate with the Pet127 construct added, 2h at 4°C; washed with NP40 buffer + 0.3% BSA; immunoblot; only the target purified
row,binding,Binder
1,binds,"6xHis-Pet127^48-800 (protein, UniProt P32606 48-800) TPDKLRSDLHSALEMVDEIYDTNSTVEDIGNKEKGGRQKYTEEMDKAINLLKTNIKKEYRHDKYLERTKVGTYPGRRTYPGRRTYPARRTYPASRTYSDSNSYTFRINVQKIRHALVRYNQDGVQKHNQKPPRIGHGLTRVLYQPLSLQKLRDNRSRMYNFDPAVENINPEYLEKKSEKDVNTDSSGEGQSKPIFITPHKDESLLKVAKEHRKKYISSSSSMTSVLSQLHYLLSNFRRLNIIDSSISKNFPQKNCNYSESAYFPSAVILRKKRNGICSIDSDRSLDREIVLSVLGHYLEDFLTEKSLKNSSKSENYHYSSIDEFIVRSQLDAYDPNLPGTGVFDLKTRAVSAIRYDLSHVESNNNQTGYEIDKVYGEFESLEREYFELIRSALLKYSLQARIGKMDGIFVAYHNISKMFGFQYLPLDELDYIIHSSYNSKFDSLLKEKNDITKGIYGEEDYILHYDRDDRKIACLVANREFKMSMNLFSNILKHVEQLLNSSNTKWEKCKIMLKTEVEEKRSKSGRFFNEPVLNIVALPLSPEYEDKSLLVKDTSNEQLTEELLNLRSYNENLLEEHLNSLVGFKVNVKHFYHHHPNTTHLPDFALKKNDILDTESRKYISDMMKRDWYKDIPSTQTPNFFHASDVSTWEVNSTFTDINDKQILRKLYFKYLDVKLNALKNQVITRQEPDMSKKDEIMNRIKSLQARNDHRDNGSNKRYSNFGPTRLQTKLRAYAKKGALRRKLLERSNKFHI"
2,no binding,"Pet127 amino acids 213–800 (pET15b-Pet127-C1764-6xHis) (domain or fragment, UniProt P32606 213-800) ENINPEYLEKKSEKDVNTDSSGEGQSKPIFITPHKDESLLKVAKEHRKKYISSSSSMTSVLSQLHYLLSNFRRLNIIDSSISKNFPQKNCNYSESAYFPSAVILRKKRNGICSIDSDRSLDREIVLSVLGHYLEDFLTEKSLKNSSKSENYHYSSIDEFIVRSQLDAYDPNLPGTGVFDLKTRAVSAIRYDLSHVESNNNQTGYEIDKVYGEFESLEREYFELIRSALLKYSLQARIGKMDGIFVAYHNISKMFGFQYLPLDELDYIIHSSYNSKFDSLLKEKNDITKGIYGEEDYILHYDRDDRKIACLVANREFKMSMNLFSNILKHVEQLLNSSNTKWEKCKIMLKTEVEEKRSKSGRFFNEPVLNIVALPLSPEYEDKSLLVKDTSNEQLTEELLNLRSYNENLLEEHLNSLVGFKVNVKHFYHHHPNTTHLPDFALKKNDILDTESRKYISDMMKRDWYKDIPSTQTPNFFHASDVSTWEVNSTFTDINDKQILRKLYFKYLDVKLNALKNQVITRQEPDMSKKDEIMNRIKSLQARNDHRDNGSNKRYSNFGPTRLQTKLRAYAKKGALRRKLLERSNKFHI"
3,binds,"Pet127 amino acids 48–215 (pET15b-Pet127-N504-6xHis) (domain or fragment, UniProt P32606 48-215) TPDKLRSDLHSALEMVDEIYDTNSTVEDIGNKEKGGRQKYTEEMDKAINLLKTNIKKEYRHDKYLERTKVGTYPGRRTYPGRRTYPARRTYPASRTYSDSNSYTFRINVQKIRHALVRYNQDGVQKHNQKPPRIGHGLTRVLYQPLSLQKLRDNRSRMYNFDPAVENI"

# Results are given in words; binding and its absence hold for the method and conditions named. Binding seen in cells or lysates may run through a third protein. Binding calls can cover weak binding; strength is not graded here. Where a sequence is shown, tags or fusion partners need not be part of it.
